Measurements reported in PubChem BioAssay AID1259308 (NCATS, 2017).
Shown is an unselected part of about 59,000 deposited reagents. About 1,510 of them (2.6%) count as active. 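Calls use total luciferase alone and ignore viability, so some active siRNAs may act by altering cell number.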 Reagents against one gene are numbered here.

Aim: 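Candidate targets for better recombinant protein yield in mammalian cells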 (primary screen)
System: human HEK293 embryonic kidney cells stably expressing firefly luciferase (HEK-CMV-Luc2-Hygro)
Reagents: single siRNA against human genes, 0.8 pmol siRNA per well
Duration: 72 h
Read-out: 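Reporter luminescence and viable-cell signal on separate replicate plates, given as percent of non-targeting control and median/MAD z-scores, plus per-cell luciferase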
Reading the numbers: total luciferase, z-score and total luciferase, % of control: higher = more reporter protein produced; luciferase per cell, z-score: higher = more reporter output per viable cell; viable cells, % of control: higher = more viable cells
Rule for the call: 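An siRNA counts as active if its total luciferase robust z-score exceeds 3; genes with two or more such siRNAs out of three were retested with fresh siRNAs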
Calls: active = raised luciferase; inactive = no rise

| gene knocked down | reagent no. | total luciferase, z-score | total luciferase, % of control | luciferase per cell, z-score | viable cells, % of control | Call |
| --- | --- | --- | --- | --- | --- | --- |
| FAM114A2 (GeneID 10827) | 1 | 1.74 | 117 | 1.37 | 90.8 | inactive |
| FAM114A2 (GeneID 10827) | 2 | 1.59 | 114 | 1.48 | 86 | inactive |
| FAM114A2 (GeneID 10827) | 3 | 0.0466 | 82.8 | 0.627 | 78.5 | inactive |
| TTLL4 (GeneID 9654) | 1 | -1.23 | 57.5 | -0.867 | 80.7 | inactive |
| TTLL4 (GeneID 9654) | 2 | -0.265 | 76.6 | -0.497 | 97.6 | inactive |
| TTLL4 (GeneID 9654) | 3 | 1.18 | 105 | 0.307 | 109 | inactive |
| AKT2 (GeneID 208) | 1 | 0.779 | 97.4 | 0.769 | 88.9 | inactive |
| AKT2 (GeneID 208) | 2 | -0.856 | 64.9 | -0.67 | 86.5 | inactive |
| AKT2 (GeneID 208) | 3 | 0.235 | 86.6 | 0.118 | 93.8 | inactive |
| HLA-G (GeneID 3135) | 1 | 3.5 | 152 | 2.39 | 90.2 | active |
| HLA-G (GeneID 3135) | 2 | -0.354 | 74.8 | -0.142 | 86.8 | inactive |
| HLA-G (GeneID 3135) | 3 | -2.62 | 29.7 | -3.72 | 88.3 | inactive |
| RREB1 (GeneID 6239) | 1 | 0.0875 | 83.6 | 0.642 | 78.9 | inactive |
| RREB1 (GeneID 6239) | 2 | -0.921 | 63.6 | -1.82 | 115 | inactive |
| RREB1 (GeneID 6239) | 3 | 3.09 | 143 | 2.74 | 77.8 | active |
| ZNF627 (GeneID 199692) | 1 | 0.46 | 91 | 0.51 | 88.9 | inactive |
| ZNF627 (GeneID 199692) | 2 | -0.421 | 73.5 | -0.273 | 88.3 | inactive |
| ZNF627 (GeneID 199692) | 3 | 0.63 | 94.4 | -0.079 | 108 | inactive |
| RELCH (GeneID 57614) | 1 | -1.65 | 49.1 | -2.53 | 107 | inactive |
| RELCH (GeneID 57614) | 2 | 2.12 | 124 | 1.37 | 96.7 | inactive |
| RELCH (GeneID 57614) | 3 | -0.848 | 65 | -0.962 | 93.6 | inactive |
| NIPBL (GeneID 25836) | 1 | -0.101 | 79.9 | -0.255 | 95.5 | inactive |
| NIPBL (GeneID 25836) | 2 | 0.413 | 90.1 | -0.367 | 111 | inactive |
| NIPBL (GeneID 25836) | 3 | -0.111 | 79.7 | -0.37 | 98.1 | inactive |
| SMO (GeneID 6608) | 1 | -0.0991 | 79.9 | -0.284 | 96.2 | inactive |
| SMO (GeneID 6608) | 2 | -0.0773 | 80.3 | 0.351 | 81.9 | inactive |
| SMO (GeneID 6608) | 3 | 0.0578 | 83 | -0.112 | 95.6 | inactive |
| DDC (GeneID 1644) | 1 | -0.684 | 68.3 | -1.29 | 107 | inactive |
| DDC (GeneID 1644) | 2 | 2.08 | 123 | 1.91 | 83.4 | inactive |
| DDC (GeneID 1644) | 3 | -0.524 | 71.5 | -0.764 | 97.7 | inactive |
| RNF150 (GeneID 57484) | 1 | 1.1 | 104 | 1 | 89 | inactive |
| RNF150 (GeneID 57484) | 2 | -0.272 | 76.5 | -0.714 | 103 | inactive |
| RNF150 (GeneID 57484) | 3 | -0.154 | 78.8 | -0.261 | 94.3 | inactive |
| BAG6 (GeneID 7917) | 1 | -0.859 | 64.8 | -0.631 | 85.5 | inactive |
| BAG6 (GeneID 7917) | 2 | 0.387 | 89.6 | 0.0912 | 97.7 | inactive |
| BAG6 (GeneID 7917) | 3 | 1.48 | 111 | 0.971 | 96.3 | inactive |
| BEST3 (GeneID 144453) | 1 | -0.925 | 63.5 | -0.947 | 91 | inactive |
| BEST3 (GeneID 144453) | 2 | 3.48 | 151 | 3.37 | 69.6 | active |
| BEST3 (GeneID 144453) | 3 | -0.493 | 72.1 | -1.14 | 109 | inactive |
| SLC25A47 (GeneID 283600) | 1 | -1.94 | 43.3 | -1.73 | 76.2 | inactive |
| SLC25A47 (GeneID 283600) | 2 | 0.992 | 102 | 0.855 | 90.7 | inactive |
| SLC25A47 (GeneID 283600) | 3 | -0.158 | 78.8 | -1.1 | 117 | inactive |
| CHTF18 (GeneID 63922) | 1 | 0.531 | 92.5 | 4.14 | 34.7 | inactive |
| CHTF18 (GeneID 63922) | 2 | -0.472 | 72.5 | 0.203 | 76.8 | inactive |
| CHTF18 (GeneID 63922) | 3 | -1.32 | 55.6 | -0.302 | 67.3 | inactive |
| C5orf34 (GeneID 375444) | 1 | -0.121 | 79.5 | 0.0279 | 88.2 | inactive |
| C5orf34 (GeneID 375444) | 2 | -0.743 | 67.1 | -1.2 | 103 | inactive |
| C5orf34 (GeneID 375444) | 3 | 0.709 | 96 | 0.361 | 97.5 | inactive |
| OXA1L (GeneID 5018) | 1 | 0.404 | 89.9 | -0.0748 | 102 | inactive |
| OXA1L (GeneID 5018) | 2 | 0.175 | 85.4 | 0.875 | 75.8 | inactive |
| OXA1L (GeneID 5018) | 3 | 0.369 | 89.2 | 0.0466 | 98.5 | inactive |
| KCNK2 (GeneID 3776) | 1 | 0.29 | 87.7 | 0.16 | 93.9 | inactive |
| KCNK2 (GeneID 3776) | 2 | -0.0247 | 81.4 | -0.541 | 105 | inactive |
| KCNK2 (GeneID 3776) | 3 | 0.669 | 95.2 | 0.0278 | 106 | inactive |
| NAIF1 (GeneID 203245) | 1 | -0.978 | 62.4 | -0.836 | 87 | inactive |
| NAIF1 (GeneID 203245) | 2 | -0.295 | 76 | -0.328 | 92.6 | inactive |
| NAIF1 (GeneID 203245) | 3 | 0.432 | 90.5 | 1.04 | 76.8 | inactive |
| TPD52 (GeneID 7163) | 1 | -0.471 | 72.5 | 0.484 | 71.3 | inactive |
| TPD52 (GeneID 7163) | 2 | -1.39 | 54.2 | -0.422 | 67.7 | inactive |
| TPD52 (GeneID 7163) | 3 | 0.341 | 88.7 | 0.924 | 77.7 | inactive |
| ATRN (GeneID 8455) | 1 | -0.895 | 64.1 | 0.00504 | 71.5 | inactive |
| ATRN (GeneID 8455) | 2 | -1.15 | 58.9 | -1.38 | 94.6 | inactive |
| ATRN (GeneID 8455) | 3 | 0.708 | 96 | 0.393 | 96.7 | inactive |
| TBX18 (GeneID 9096) | 1 | -1.34 | 55.3 | -1.13 | 83.2 | inactive |
| TBX18 (GeneID 9096) | 2 | -1.58 | 50.5 | -1.34 | 80.4 | inactive |
| TBX18 (GeneID 9096) | 3 | -2.04 | 41.3 | -2.43 | 87.7 | inactive |
| METTL4 (GeneID 64863) | 1 | 0.747 | 96.8 | 0.882 | 85.7 | inactive |
| METTL4 (GeneID 64863) | 2 | 0.25 | 86.9 | -0.212 | 103 | inactive |
| METTL4 (GeneID 64863) | 3 | -1.79 | 46.4 | -1.8 | 83.3 | inactive |
| TDRG1 (GeneID 732253) | 1 | -0.389 | 74.1 | 0.247 | 77.6 | inactive |
| TDRG1 (GeneID 732253) | 2 | -0.308 | 75.8 | 0.0205 | 84.2 | inactive |
| TDRG1 (GeneID 732253) | 3 | 1.33 | 108 | 0.742 | 99.6 | inactive |
| LRRC8D (GeneID 55144) | 1 | -1.14 | 59.3 | -0.665 | 78.9 | inactive |
| LRRC8D (GeneID 55144) | 2 | 2.42 | 130 | 3.02 | 65.5 | inactive |
| LRRC8D (GeneID 55144) | 3 | -0.386 | 74.2 | -0.513 | 94.9 | inactive |
